Measurements taken from doi:10.1101/2022.04.28.489951.
These are yes or no findings as the source states them, for the method shown. In cells and extracts the contact can be indirect.

Protein sequences, listed by entry. Tags and fused reporters are not part of them.
UniProt O14980: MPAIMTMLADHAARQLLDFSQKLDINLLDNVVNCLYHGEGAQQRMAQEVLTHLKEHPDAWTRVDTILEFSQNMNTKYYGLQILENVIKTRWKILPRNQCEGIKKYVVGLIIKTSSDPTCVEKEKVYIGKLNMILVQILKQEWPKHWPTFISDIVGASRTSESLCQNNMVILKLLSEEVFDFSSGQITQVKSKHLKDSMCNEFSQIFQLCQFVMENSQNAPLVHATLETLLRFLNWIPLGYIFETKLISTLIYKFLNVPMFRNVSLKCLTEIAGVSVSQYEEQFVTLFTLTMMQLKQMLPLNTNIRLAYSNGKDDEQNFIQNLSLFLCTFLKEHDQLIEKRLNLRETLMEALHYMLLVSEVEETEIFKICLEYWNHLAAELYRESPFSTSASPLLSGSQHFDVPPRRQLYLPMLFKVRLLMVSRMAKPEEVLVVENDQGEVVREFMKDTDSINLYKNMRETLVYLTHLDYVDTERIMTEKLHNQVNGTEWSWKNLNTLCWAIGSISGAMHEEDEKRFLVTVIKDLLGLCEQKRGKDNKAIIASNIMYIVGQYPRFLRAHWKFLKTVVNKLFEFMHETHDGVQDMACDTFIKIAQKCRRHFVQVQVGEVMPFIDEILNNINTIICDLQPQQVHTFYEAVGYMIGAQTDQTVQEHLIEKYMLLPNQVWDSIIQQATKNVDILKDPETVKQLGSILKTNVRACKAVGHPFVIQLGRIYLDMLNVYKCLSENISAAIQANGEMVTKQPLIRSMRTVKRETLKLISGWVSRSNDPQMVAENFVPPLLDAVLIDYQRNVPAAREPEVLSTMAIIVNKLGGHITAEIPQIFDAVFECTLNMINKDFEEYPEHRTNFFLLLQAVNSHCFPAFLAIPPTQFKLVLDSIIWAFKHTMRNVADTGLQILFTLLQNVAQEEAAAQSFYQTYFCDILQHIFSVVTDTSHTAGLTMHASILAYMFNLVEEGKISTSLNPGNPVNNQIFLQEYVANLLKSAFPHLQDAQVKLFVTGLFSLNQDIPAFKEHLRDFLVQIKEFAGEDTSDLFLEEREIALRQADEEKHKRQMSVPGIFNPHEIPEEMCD
UniProt Q9HAV4: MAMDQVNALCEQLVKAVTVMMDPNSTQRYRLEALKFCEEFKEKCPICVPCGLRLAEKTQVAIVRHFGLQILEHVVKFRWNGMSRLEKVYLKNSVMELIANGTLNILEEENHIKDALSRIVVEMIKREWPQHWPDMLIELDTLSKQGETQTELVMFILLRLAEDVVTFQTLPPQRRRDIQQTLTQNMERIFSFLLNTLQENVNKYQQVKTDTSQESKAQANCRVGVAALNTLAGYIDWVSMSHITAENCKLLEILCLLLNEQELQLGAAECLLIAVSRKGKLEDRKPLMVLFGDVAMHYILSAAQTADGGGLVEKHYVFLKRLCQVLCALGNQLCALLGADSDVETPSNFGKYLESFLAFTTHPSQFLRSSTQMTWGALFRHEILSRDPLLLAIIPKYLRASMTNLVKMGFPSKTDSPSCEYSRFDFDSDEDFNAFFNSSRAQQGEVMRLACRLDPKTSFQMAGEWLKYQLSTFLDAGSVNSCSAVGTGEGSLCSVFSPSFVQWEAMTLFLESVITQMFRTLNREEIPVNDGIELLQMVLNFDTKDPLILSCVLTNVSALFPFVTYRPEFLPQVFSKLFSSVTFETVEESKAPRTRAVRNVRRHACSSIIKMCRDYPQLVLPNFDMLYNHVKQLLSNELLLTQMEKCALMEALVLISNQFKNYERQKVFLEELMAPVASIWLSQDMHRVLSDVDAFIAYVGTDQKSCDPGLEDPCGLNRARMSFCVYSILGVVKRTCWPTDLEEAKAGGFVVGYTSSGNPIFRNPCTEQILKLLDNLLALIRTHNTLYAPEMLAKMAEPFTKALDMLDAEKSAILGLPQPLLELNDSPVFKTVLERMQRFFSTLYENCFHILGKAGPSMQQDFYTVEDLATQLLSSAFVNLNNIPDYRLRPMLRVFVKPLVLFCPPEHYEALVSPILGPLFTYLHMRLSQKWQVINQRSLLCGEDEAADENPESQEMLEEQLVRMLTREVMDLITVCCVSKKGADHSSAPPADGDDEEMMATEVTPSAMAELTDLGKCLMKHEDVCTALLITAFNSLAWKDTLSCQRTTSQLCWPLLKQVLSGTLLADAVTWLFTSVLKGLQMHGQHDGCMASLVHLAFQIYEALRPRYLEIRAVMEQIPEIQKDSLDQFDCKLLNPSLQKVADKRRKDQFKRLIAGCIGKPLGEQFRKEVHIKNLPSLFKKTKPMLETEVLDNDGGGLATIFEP

T1: La protein (autoantigen La) (human (endogenous in U2OS)) (UniProt P05455)
T1 sequence: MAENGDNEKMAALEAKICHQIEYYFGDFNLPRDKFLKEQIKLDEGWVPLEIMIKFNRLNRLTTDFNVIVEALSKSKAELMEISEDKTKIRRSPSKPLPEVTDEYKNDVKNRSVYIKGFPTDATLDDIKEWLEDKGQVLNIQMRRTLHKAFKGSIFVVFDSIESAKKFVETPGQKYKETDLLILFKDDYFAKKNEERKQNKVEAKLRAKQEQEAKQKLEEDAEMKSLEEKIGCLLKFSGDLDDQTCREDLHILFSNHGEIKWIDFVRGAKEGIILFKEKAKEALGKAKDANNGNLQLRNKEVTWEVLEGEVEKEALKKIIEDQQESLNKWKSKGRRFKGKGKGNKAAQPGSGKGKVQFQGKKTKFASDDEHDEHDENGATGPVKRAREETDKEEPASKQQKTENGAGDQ

B1: XPOT (exportin-t) (protein, UniProt O43592 1-962)
chain: MDEQALLGLNPNADSDFRQRALAYFEQLKISPDAWQVCAEALAQRTYSDDHVKFFCFQVLEHQVKYKYSELTTVQQQLIRETLISWLQAQMLNPQPEKTFIRNKAAQVFALLFVTEYLTKWPKFFFDILSVVDLNPRGVDLYLRILMAIDSELVDRDVVHTSEEARRNTLIKDTMREQCIPNLVESWYQILQNYQFTNSEVTCQCLEVVGAYVSWIDLSLIANDRFINMLLGHMSIEVLREEACDCLFEVVNKGMDPVDKMKLVESLCQVLQSAGFFSIDQEEDVDFLARFSKLVNGMGQSLIVSWSKLIKNGDIKNAQEALQAIETKVALMLQLLIHEDDDISSNIIGFCYDYLHILKQLTVLSDQQKANVEAIMLAVMKKLTYDEEYNFENEGEDEAMFVEYRKQLKLLLDRLAQVSPELLLASVRRVFSSTLQNWQTTRFMEVEVAIRLLYMLAEALPVSHGAHFSGDVSKASALQDMMRTLVTSGVSSYQHTSVTLEFFETVVRYEKFFTVEPQHIPCVLMAFLDHRGLRHSSAKVRSRTAYLFSRFVKSLNKQMNPFIEDILNRIQDLLELSPPENGHQSLLSSDDQLFIYETAGVLIVNSEYPAERKQALMRNLLTPLMEKFKILLEKLMLAQDEERQASLADCLNHAVGFASRTSKAFSNKQTVKQCGCSEVYLDCLQTFLPALSCPLQKDILRSGVRTFLHRMIICLEEEVLPFIPSASEHMLKDCEAKDLQEFIPLINQITAKFKIQVSPFLQQMFMPLLHAIFEVLLRPAEENDQSAALEKQMLRRSYFAFLQTVTGSGMSEVIANQGAENVERVLVTVIQGAVEYPDPIAQKTCFIILSKLVELWGGKDGPVGFADFVYKHIVPACFLAPLKQTFDLADAQTVLALSECAVTLKTIHLKRGPECVQYLQQEYLPSLQVAPEIIQEFCQALQQPDAKVFKNYLKVFFQRAKP

biological target: T1, La protein (autoantigen La) (human (endogenous in U2OS)); experiment: co-IP

binding | Molecule
no binding | XPO1 (Crm1) (from UniProt O14980 1-1071)
no binding | XPO5 (Exportin-5) (from UniProt Q9HAV4 1-1204)
no binding | B1
